From PMC7935978 come the findings set out here.

The series has as its target GFP-FUS-Gal4 (UniProt P04386). Briefly: EMSA. The conditions noted are these: 40 mM Tris-HCl pH 7.5, 150 mM KCl, 2 mM MgCl2, 1 mM DTT, 0.2 mg/ml BSA; EMSA 30 min at room temperature; recombinant protein; protein details: 7xHis, sfGFP(A206K); label: 5' Quasar 670. (In general: In EMSA bound probe runs differently from free probe, usually more slowly.)

Construct, isoform or probe ends are uncertain for at least one entry. At least one verdict was read from the data and is not stated in words by the source.

As to “ATATCGGAGGACAGTCCTCCGAATA (double strand) [1x Gal4DBD binding site 25-bp]”, the binding result is “binds”.
